Results deposited as PubChem BioAssay AID686943 (Drosophila RNAi Screening Center, 2013).
Purpose: 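Knockdowns that increase or decrease active ERK after insulin receptor stimulation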 (primary screen). Cells: Drosophila S2R+ haemocyte-like cells expressing YFP-tagged ERK (Rolled). Reagent: long dsRNA against Drosophila genes. Challenge: insulin stimulation versus unstimulated cells; dose and duration not given. Read-out: 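Per-plate z-scores of phospho-ERK immunostaining normalised to YFP-tagged ERK, measured with and without insulin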. Direction: replicate 1, z-score of dpERK with insulin and replicate 2, z-score of dpERK with insulin: higher = more active ERK per ERK-YFP after insulin; replicate 1, z-score of dpERK under basal conditions: higher = more basal active ERK per ERK-YFP; replicate 1, z-score of ERK-YFP with insulin: higher = more YFP-tagged ERK signal.
In all, the deposit lists about 23,000 reagents; below is a random part of those that have a named target and a result. 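Extra replicates exist only for a retested subset of genes; insulin dose and duration not given; both raised and lowered dpERK matter.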 Reagents against one gene are numbered here. A plus sign joins genes that one reagent is predicted to hit. Reagent sequences are not shown. Not given: the amount of reagent, the time to read-out.

no.	gene knocked down	dsRNA no.	replicate 1, z-score of dpERK with insulin	replicate 2, z-score of dpERK with insulin	replicate 1, z-score of dpERK under basal conditions	replicate 1, z-score of ERK-YFP with insulin
1	Nlp	1	-0.06	0.24	0.31	0.96
2	lncRNA:CR30055	1	0.35	0.26	0.49	-1.35
3	CG3288	1	0.55	0.09	1	-0.01
4	CG30395	1	0.64	-0.21	0	-0.25
5	garz	1	0.1	-0.23	-1.06	0
6	CG31516	1	0.16	0.5	0.01	0.66
7	CG3473	1	0.13	-0.54	-0.83	-0.16
8	Buffy	1	-0.45	1.01	-0.64	0.34
9	BomS1	1	-2.78	-0.44	-1.1	0.35
10	pn	1	-0.62	-0.43	0.09	0.09
11	CG3703	1	0.26	0	0.48	0.2
12	CG3703	2	0.63	0.86	-0.52	-0.12
13	CG3703	3	-0.24	0.45	0.01	0.15
14	GalT1	1	0.04	0.34	0.62	-1.37
15	pico	1	-0.4	-0.47	-1.02	0.1
16	CG11635	1	0.11	-0.36	0.29	0.2
17	wcd	1	0.25	0.22	0.19	-1.27
18	CG34435	1	0.16	0.36	1.02	0.77
19	CG34404	1	-0.75	0.58	1.47	0.29
20	CG34404	2	-0.55	-0.36	-0.04	0.96
21	BaraA1 + BaraA2	1	-0.17	-0.4	-0.34	0.21
22	CG10038	1	-0.02	0.48	-0.42	0.22
23	gammaTub37C	1	0.48	0.08	0.15	0.2
24	CG10969	1	0.08	0.6	-0.86	-0.45
25	TwdlN	1	-1.12	-1.45	0.07	0.66
26	ZnT33D	1	0.35	-0.11	-0.25	0.39
27	CG3557	1	-0.33	0.3	-0.34	0.54
28	HIP + HIP-R	1	0.07	0.11	-0.09	0.89
29	CG9391	1	-0.2	-0.36	0.52	0.53
30	Prx1	1	-0.22	0.29	1.22	0.62
31	Bruce	1	-0.39	0.39	0.68	-0.57
32	CG3610	1	1.1	0.75	0.28	-0.02
33	CG32576	1	0.04	0.65	0.1	0.37
34	CG33232 (retired record)	1	0.77	0.07	0.42	0.52
35	CG33232 (retired record)	2	1.38	0.79	0.27	0.48
36	CG31871	1	0.35	-0.01	0.91	-0.15
37	CG31871	2	0.61	0.6	0.28	-1.36
38	Pal2	1	1.24	0.2	-0.21	0.4
39	CG6380	1	-0.58	-0.05	-0.31	0.68
40	Scgalpha	1	0.05	0.37	-0.07	0.13
41	Incenp	1	0.54	-0.09	0.3	0.05
42	Incenp	2	-0.26	0.48	-0.36	0.97
43	CG1503	1	0.01	-0.14	-0.4	0.54
44	lncRNA:CR34024	1	-0.1	-0.27	1.43	0.16
45	Cyp6d4	1	1.5	-0.19	-0.87	0.76
46	Trc8	1	0.13	0.62	-0.52	0.45
47	CG30049	1	-1.56	-2.29	0.32	0.7
48	RpS30	1	-1.15	-0.55	-0.52	-4.85
49	RpL10Ab	1	-3.05	-1.36	-1.33	-2.76
50	RhoL	1	-1.63	-2.55	-0.14	0.29
51	slou	1	1	-0.1	1.04	-0.2
52	sit	1	0	0.77	0.84	0
53	Ubc84D	1	0.54	1.06	1.6	-0.24
54	lic	1	0.32	1.4	0.73	0.48
55	akirin	1	-1.77	-4.33	0	-0.83
56	Tsp26A	1	1.2	0.27	-0.72	0.96
57	Rbfox1	1	0.21	0.12	1.32	0.3
58	Rbfox1	2	-4.6	-0.1	-0.16	-4.9
59	Rbfox1	3	-0.65	-2.05	-1.1	0.76
60	Rbfox1	4	0.38	-0.06	0.65	-0.78
61	Cpsf5	1	-1.16	1.23	-1.42	2.98
62	CG11771	1	-0.19	-0.05	0.21	-0.45
63	Ir100a	1	0.15	-1.06	-0.23	-0.03
64	CG10725	1	-0.22	-0.06	0.32	1.95
65	UQCR-11L	1	0.07	0.96	-0.69	0.48
66	CG14186	1	0.68	0.57	-0.07	0.46
67	CG2962	1	0.1	0.44	1.43	-0.2
68	Pep	1	-0.6	0.04	0.06	0.97
69	CG34427	1	0.16	0.65	1.94	0.42
70	Mst85C	1	-0.17	-1.15	0.63	-0.75
71	H2.0	1	-3.54	0.28	0.83	0.29
72	H2.0	2	0.57	0.59	-1.11	0.41
73	Eglp3	1	-0.86	-2.06	0.25	0.28

Not a retest: an excerpt of the list.
no.	gene knocked down	dsRNA no.	replicate 1, z-score of dpERK with insulin	replicate 2, z-score of dpERK with insulin	replicate 1, z-score of dpERK under basal conditions	replicate 1, z-score of ERK-YFP with insulin
17	wcd	1	0.25	0.22	0.19	-1.27
18	CG34435	1	0.16	0.36	1.02	0.77
19	CG34404	1	-0.75	0.58	1.47	0.29
20	CG34404	2	-0.55	-0.36	-0.04	0.96
21	BaraA1 + BaraA2	1	-0.17	-0.4	-0.34	0.21
22	CG10038	1	-0.02	0.48	-0.42	0.22
23	gammaTub37C	1	0.48	0.08	0.15	0.2
24	CG10969	1	0.08	0.6	-0.86	-0.45
